Data taken from patent publication US10525115B2 (Immatics Biotechnologies GmbH, priority 2014, dated 2020).

B1: HAL (protein, UniProt P42357 1-657, looked up)
Histidine ammonia-lyase: MPRYTVHVRGEWLAVPCQDAQLTVGWLGREAVRRYIKNKPDNGGFTSVDDAHFLVRRCKGLGLLDNEDRLEVALENNEFVEVVIEGDAMSPDFIPSQPEGVYLYSKYREPEKYIELDGDRLTTEDLVNLGKGRYKIKLTPTAEKRVQKSREVIDSIIKEKTVVYGITTGFGKFARTVIPINKLQELQVNLVRSHSSGVGKPLSPERCRMLLALRINVLAKGYSGISLETLKQVIEMFNASCLPYVPEKGTVGASGDLAPLSHLALGLVGEGKMWSPKSGWADAKYVLEAHGLKPVILKPKEGLALINGTQMITSLGCEAVERASAIARQADIVAALTLEVLKGTTKAFDTDIHALRPHRGQIEVAFRFRSLLDSDHHPSEIAESHRFCDRVQDAYTLRCCPQVHGVVNDTIAFVKNIITTELNSATDNPMVFANRGETVSGGNFHGEYPAKALDYLAIGIHELAAISERRIERLCNPSLSELPAFLVAEGGLNSGFMIAHCTAAALVSENKALCHPSSVDSLSTSAATEDHVSMGGWAARKALRVIEHVEQVLAIELLAACQGIEFLRPLKTTTPLEKVYDLVRSVVRPWIKDRFMAPDIEAAHRLLLEQKVWEVAAPYIEKYRMEHIPESRPLSPTAFSLQFLHKKSTKIPESEDL
B2: PRIM1 (protein, UniProt P49642 1-420, looked up)
DNA primase small subunit: METFDPTELPELLKLYYRRLFPYSQYYRWLNYGGVIKNYFQHREFSFTLKDDIYIRYQSFNNQSDLEKEMQKMNPYKIDIGAVYSHRPNQHNTVKLGAFQAQEKELVFDIDMTDYDDVRRCCSSADICPKCWTLMTMAIRIIDRALKEDFGFKHRLWVYSGRRGVHCWVCDESVRKLSSAVRSGIVEYLSLVKGGQDVKKKVHLSEKIHPFIRKSINIIKKYFEEYALVNQDILENKESWDKILALVPETIHDELQQSFQKSHNSLQRWEHLKKVASRYQNNIKNDKYGPWLEWEIMLQYCFPRLDINVSKGINHLLKSPFSVHPKTGRISVPIDLQKVDQFDPFTVPTISFICRELDAISTNEEEKEENEAESDVKHRTRDYKKTSLAPYVKVFEHFLENLDKSRKGELLKKSDLQKDF
B3: TIPRL (protein, UniProt O75663 1-272, looked up)
TIP41-like protein: MMIHGFQSSHRDFCFGPWKLTASKTHIMKSADVEKLADELHMPSLPEMMFGDNVLRIQHGSGFGIEFNATDALRCVNNYQGMLKVACAEEWQESRTEGEHSKEVIKPYDWTYTTDYKGTLLGESLKLKVVPTTDHIDTEKLKAREQIKFFEEVLLFEDELHDHGVSSLSVKIRVMPSSFFLLLRFFLRIDGVLIRMNDTRLYHEADKTYMLREYTSRESKISSLMHVPPSLFTEPNEISQYLPIKEAVCEKLIFPERIDPNPADSQKSTQVE
B4: AZU1 (protein, UniProt P20160 27-248, looked up)
Azurocidin: IVGGRKARPRQFPFLASIQNQGRHFCGGALIHARFVMTAASCFQSQNPGVSTVVLGAYDLRRRERQSRQTFSISSMSENGYDPQQNLNDLMLLQLDREANLTSSVTILPLPLQNATVEAGTRCQVAGWGSQRSGGRLSRFPRFVNVTVTPEDQCRPNNVCTGVLTRRGGICNGDGGTPLVCEGLAHGVASFSLGPCGRGPDFFTRVALFRDWIDGVLNNPGP
B5: RCBTB2 (protein, UniProt O95199 1-551, looked up)
RCC1 and BTB …: MEEELPLFSGDSGKPVQATLSSLKMLDVGKWPIFSLCSEEELQLIRQACVFGSAGNEVLYTTVNDEIFVLGTNCCGCLGLGDVQSTIEPRRLDSLNGKKIACLSYGSGPHIVLATTEGEVFTWGHNAYSQLGNGTTNHGLVPCHISTNLSNKQVIEVACGSYHSLVLTSDGEVFAWGYNNSGQVGSGSTVNQPIPRRVTGCLQNKVVVTIACGQMCCMAVVDTGEVYVWGYNGNGQLGLGNSGNQPTPCRVAALQGIRVQRVACGYAHTLVLTDEGQVYAWGANSYGQLGTGNKSNQSYPTPVTVEKDRIIEIAACHSTHTSAAKTQGGHVYMWGQCRGQSVILPHLTHFSCTDDVFACFATPAVTWRLLSVEPDDHLTVAESLKREFDNPDTADLKFLVDGKYIYAHKVLLKIRCEHFRSSLEDNEDDIVEMSEFSYPVYRAFLEYLYTDSISLSPEEAVGLLDLATFYRENRLKKLCQQTIKQGICEENAIALLSAAVKYDAQDLEEFCFRFCINHLTVVTQTSGFAEMDHDLLKNFISKASRVGAFKN
B6: ATP5L (protein, UniProt O75964 2-103, looked up)
ATP synthase F(0) complex …: AQFVRNLVEKTPALVNAAVTYSKPRLATFWYYAKVELVPPTPAEIPRAIQSLKKIVNSAQTGSFKQLTVKEAVLNGLVATEVLMWFYVGEIIGKRGIIGYDV
B7: CPA3 (protein, UniProt P15088 110-417, looked up)
Mast cell carboxypeptidase A: IPGRHSYAKYNNWEKIVAWTEKMMDKYPEMVSRIKIGSTVEDNPLYVLKIGEKNERRKAIFTDCGIHAREWVSPAFCQWFVYQATKTYGRNKIMTKLLDRMNFYILPVFNVDGYIWSWTKNRMWRKNRSKNQNSKCIGTDLNRNFNASWNSIPNTNDPCADNYRGSAPESEKETKAVTNFIRSHLNEIKVYITFHSYSQMLLFPYGYTSKLPPNHEDLAKVAKIGTDVLSTRYETRYIYGPIESTIYPISGSSLDWAYDLGIKHTFAFELRDKGKFGFLLPESRIKPTCRETMLAVKFIAKYILKHTS
B8: RPS6KA4 (protein, UniProt O75676 1-772, looked up)
Ribosomal protein S6 kinase …: MGDEDDDESCAVELRITEANLTGHEEKVSVENFELLKVLGTGAYGKVFLVRKAGGHDAGKLYAMKVLRKAALVQRAKTQEHTRTERSVLELVRQAPFLVTLHYAFQTDAKLHLILDYVSGGEMFTHLYQRQYFKEAEVRVYGGEIVLALEHLHKLGIIYRDLKLENVLLDSEGHIVLTDFGLSKEFLTEEKERTFSFCGTIEYMAPEIIRSKTGHGKAVDWWSLGILLFELLTGASPFTLEGERNTQAEVSRRILKCSPPFPPRIGPVAQDLLQRLLCKDPKKRLGAGPQGAQEVRNHPFFQGLDWVALAARKIPAPFRPQIRSELDVGNFAEEFTRLEPVYSPPGSPPPGDPRIFQGYSFVAPSILFDHNNAVMTDGLEAPGAGDRPGRAAVARSAMMQDSPFFQQYELDLREPALGQGSFSVCRRCRQRQSGQEFAVKILSRRLEANTQREVAALRLCQSHPNVVNLHEVHHDQLHTYLVLELLRGGELLEHIRKKRHFSESEASQILRSLVSAVSFMHEEAGVVHRDLKPENILYADDTPGAPVKIIDFGFARLRPQSPGVPMQTPCFTLQYAAPELLAQQGYDESCDLWSLGVILYMMLSGQVPFQGASGQGGQSQAAEIMCKIREGRFSLDGEAWQGVSEEAKELVRGLLTVDPAKRLKLEGLRGSSWLQDGSARSSPPLRTPDVLESSGPAVRSGLNATFMAFNRGKREGFFLKSVENAPLAKRRKQKLRSATASRRGSPAPANPGRAPVASKGAPRRANGPLPPS
B9: PAK4 (protein, UniProt O96013 1-591, looked up)
Serine/threonine-protein …: MFGKRKKRVEISAPSNFEHRVHTGFDQHEQKFTGLPRQWQSLIEESARRPKPLVDPACITSIQPGAPKTIVRGSKGAKDGALTLLLDEFENMSVTRSNSLRRDSPPPPARARQENGMPEEPATTARGGPGKAGSRGRFAGHSEAGGGSGDRRRAGPEKRPKSSREGSGGPQESSRDKRPLSGPDVGTPQPAGLASGAKLAAGRPFNTYPRADTDHPSRGAQGEPHDVAPNGPSAGGLAIPQSSSSSSRPPTRARGAPSPGVLGPHASEPQLAPPACTPAAPAVPGPPGPRSPQREPQRVSHEQFRAALQLVVDPGDPRSYLDNFIKIGEGSTGIVCIATVRSSGKLVAVKKMDLRKQQRRELLFNEVVIMRDYQHENVVEMYNSYLVGDELWVVMEFLEGGALTDIVTHTRMNEEQIAAVCLAVLQALSVLHAQGVIHRDIKSDSILLTHDGRVKLSDFGFCAQVSKEVPRRKSLVGTPYWMAPELISRLPYGPEVDIWSLGIMVIEMVDGEPPYFNEPPLKAMKMIRDNLPPRLKNLHKVSPSLKGFLDRLLVRDPAQRATAAELLKHPFLAKAGPPASIVPLMRQNRTR
B10: ATP2B4 (protein, UniProt P23634 1-1241, looked up)
Plasma membrane …: MTNPSDRVLPANSMAESREGDFGCTVMELRKLMELRSRDALTQINVHYGGVQNLCSRLKTSPVEGLSGNPADLEKRRQVFGHNVIPPKKPKTFLELVWEALQDVTLIILEIAAIISLVLSFYRPAGEENELCGQVATTPEDENEAQAGWIEGAAILFSVIIVVLVTAFNDWSKEKQFRGLQCRIEQEQKFSIIRNGQLIQLPVAEIVVGDIAQVKYGDLLPADGILIQGNDLKIDESSLTGESDHVKKSLDKDPMLLSGTHVMEGSGRMVVTAVGVNSQTGIILTLLGVNEDDEGEKKKKGKKQGVPENRNKAKTQDGVALEIQPLNSQEGIDNEEKDKKAVKVPKKEKSVLQGKLTRLAVQIGKAGLLMSALTVFILILYFVIDNFVINRRPWLPECTPIYIQYFVKFFIIGITVLVVAVPEGLPLAVTISLAYSVKKMMKDNNLVRHLDACETMGNATAICSDKTGTLTMNRMTVVQAYIGGIHYRQIPSPDVFLPKVLDLIVNGISINSAYTSKILPPEKEGGLPRQVGNKTECALLGFVTDLKQDYQAVRNEVPEEKLYKVYTFNSVRKSMSTVIRNPNGGFRMYSKGASEIILRKCNRILDRKGEAVPFKNKDRDDMVRTVIEPMACDGLRTICIAYRDFDDTEPSWDNENEILTELTCIAVVGIEDPVRPEVPDAIAKCKQAGITVRMVTGDNINTARAIATKCGILTPGDDFLCLEGKEFNRLIRNEKGEVEQEKLDKIWPKLRVLARSSPTDKHTLVKGIIDSTVGEHRQVVAVTGDGTNDGPALKKADVGFAMGIAGTDVAKEASDIILTDDNFTSIVKAVMWGRNVYDSISKFLQFQLTVNVVAVIVAFTGACITQDSPLKAVQMLWVNLIMDTFASLALATEPPTESLLKRRPYGRNKPLISRTMMKNILGHAFYQLIVIFILVFAGEKFFDIDSGRKAPLHSPPSQHYTIVFNTFVLMQLFNEINSRKIHGEKNVFSGIYRNIIFCSVVLGTFICQIFIVEFGGKPFSCTSLSLSQWLWCLFIGIGELLWGQFISAIPTRSLKFLKEAGHGTTKEEITKDAEGLDEIDHAEMELRRGQILWFRGLNRIQTQIDVINTFQTGASFKGVLRRQNMGQHLDVKLVPSSSYIKVVKAFHSSLHESIQKPYNQKSIHSFMTHPEFAIEEELPRTPLLDEEEEENPDKASKFGTRVLLLDGEVTPYANTNNNAVDCNQVQLPQSDSSLQSLETSV

System: primary AML samples
Assay: HLA class I ligandome analysis (W6/32 immunoaffinity purification, LC-MS/MS) of primary AML samples
Set-up: species or system human
Conditions: for Number of positive AMLs: HLA class I ligandome, AML patients (n=15), count for the HLA ligand (LiTAP) or, on protein lines, for the source protein (LiTAA); for Number of positive AMLs [rep. frequency]: representation frequency of the source protein (LiTAA) in AML patients (n=15)

| Molecule | Number of positive AMLs | Number of positive AMLs [rep. frequency] |
| --- | --- | --- |
| B1 | 3 | [20.0%] |
| B2 | 3 | [20.0%] |
| B3 | 3 | [20.0%] |
| B4 | 3 | [20.0%] |
| B5 | 3 | [20.0%] |
| B6 | 5 | [33.3%] |
| B7 | 3 | [20.0%] |
| B8 | 3 | [20.0%] |
| B9 | 3 | [20.0%] |
| B10 | 3 | [20.0%] |
